Results from paper PMC5286426, “The Calcium-Dependent Switch Helix of L-Plastin Regulates Actin Bundling” (Scientific Reports, 2017).
Results are given in words; binding and its absence hold for the method and conditions named. Binding calls can cover weak binding; strength is not graded here.

Biological target: L-plastin EF construct (EF-hand headpiece domain, H5 region omitted) (human)
Assay: NMR titration; H5 peptide added to 15N-labelled EF; 1H,15N HSQC; both purified

- binding: binds weakly
B1: synthetic H5 peptide representing the H5 region of LPL (residues 83-100) (peptide)
peptide: STDVAKTFRKAINKKEGI
modifications: N-terminal acetyl (Ac-); C-terminal amide (-NH2)
